{"source": "paper PMC11605229", "binders": {"B1": {"name": "PRPF4 (protein, UniProt O43172 1-522)", "chain": "MASSRASSTQATKTKAPDDLVAPVVKKPHIYYGSLEEKERERLAKGESGILGKDGLKAGIEAGNINITSGEVFEIEEHISERQAEVLAEFERRKRARQINVSTDDSEVKACLRALGEPITLFGEGPAERRERLRNILSVVGTDALKKTKKDDEKSKKSKEEYQQTWYHEGPNSLKVARLWIANYSLPRAMKRLEEARLHKEIPETTRTSQMQELHKSLRSLNNFCSQIGDDRPISYCHFSPNSKMLATACWSGLCKLWSVPDCNLLHTLRGHNTNVGAIVFHPKSTVSLDPKDVNLASCAADGSVKLWSLDSDEPVADIEGHTVRVARVMWHPSGRFLGTTCYDRSWRLWDLEAQEEILHQEGHSMGVYDIAFHQDGSLAGTGGLDAFGRVWDLRTGRCIMFLEGHLKEIYGINFSPNGYHIATGSGDNTCKVWDLRQRRCVYTIPAHQNLVTGVKFEPIHGNFLLTGAYDNTAKIWTHPGWSPLKTLAGHEGKVMGLDISSDGQLIATCSYDRTFKLWMAE"}, "B2": {"name": "PUS7 (protein, UniProt Q96PZ0 1-661)", "chain": "MEMTEMTGVSLKRGALVVEDNDSGVPVEETKKQKLSECSLTKGQDGLQNDFLSISEDVPRPPDTVSTGKGGKNSEAQLEDEEEEEEDGLSEECEEEESESFADMMKHGLTEADVGITKFVSSHQGFSGILKERYSDFVVHEIGKDGRISHLNDLSIPVDEEDPSEDIFTVLTAEEKQRLEELQLFKNKETSVAIEVIEDTKEKRTIIHQAIKSLFPGLETKTEDREGKKYIVAYHAAGKKALANPRKHSWPKSRGSYCHFVLYKENKDTMDAINVLSKYLRVKPNIFSYMGTKDKRAITVQEIAVLKITAQRLAHLNKCLMNFKLGNFSYQKNPLKLGELQGNHFTVVLRNITGTDDQVQQAMNSLKEIGFINYYGMQRFGTTAVPTYQVGRAILQNSWTEVMDLILKPRSGAEKGYLVKCREEWAKTKDPTAALRKLPVKRCVEGQLLRGLSKYGMKNIVSAFGIIPRNNRLMYIHSYQSYVWNNMVSKRIEDYGLKPVPGDLVLKGATATYIEEDDVNNYSIHDVVMPLPGFDVIYPKHKIQEAYREMLTADNLDIDNMRHKIRDYSLSGAYRKIIIRPQNVSWEVVAYDDPKIPLFNTDVDNLEGKTPPVFASEGKYRALKMDFSLPPSTYATMAIREVLKMDTSIKNQTQLNTTWLR"}, "B3": {"name": "ANXA1 (protein, UniProt P04083 1-346)", "chain": "MAMVSEFLKQAWFIENEEQEYVQTVKSSKGGPGSAVSPYPTFNPSSDVAALHKAIMVKGVDEATIIDILTKRNNAQRQQIKAAYLQETGKPLDETLKKALTGHLEEVVLALLKTPAQFDADELRAAMKGLGTDEDTLIEILASRTNKEIRDINRVYREELKRDLAKDITSDTSGDFRNALLSLAKGDRSEDFGVNEDLADSDARALYEAGERRKGTDVNVFNTILTTRSYPQLRRVFQKYTKYSKHDMNKVLDLELKGDIEKCLTAIVKCATSKPAFFAEKLHQAMKGVGTRHKALIRIMVSRSEIDMNDIKAFYQKMYGISLCQAILDETKGDYEKILVALCGGN"}, "B4": {"name": "Hsp70-binding protein 1 (protein, UniProt Q9NZL4 1-359)", "chain": "MSDEGSRGSRLPLALPPASQGCSSGGGGGGSSAGGSGNSRPPRNLQGLLQMAITAGSEEPDPPPEPMSEERRQWLQEAMSAAFRGQREEVEQMKSCLRVLSQPMPPTAGEAEQAADQQEREGALELLADLCENMDNAADFCQLSGMHLLVGRYLEAGAAGLRWRAAQLIGTCSQNVAAIQEQVLGLGALRKLLRLLDRDACDTVRVKALFAISCLVREQEAGLLQFLRLDGFSVLMRAMQQQVQKLKVKSAFLLQNLLVGHPEHKGTLCSMGMVQQLVALVRTEHSPFHEHVLGALCSLVTDFPQGVRECREPELGLEELLRHRCQLLQQHEEYQEELEFCEKLLQTCFSSPADDSMDR"}, "B5": {"name": "CASP4 (protein, UniProt P49662 1-377)", "chain": "MAEGNHRKKPLKVLESLGKDFLTGVLDNLVEQNVLNWKEEEKKKYYDAKTEDKVRVMADSMQEKQRMAGQMLLQTFFNIDQISPNKKAHPNMEAGPPESGESTDALKLCPHEEFLRLCKERAEEIYPIKERNNRTRLALIICNTEFDHLPPRNGADFDITGMKELLEGLDYSVDVEENLTARDMESALRAFATRPEHKSSDSTFLVLMSHGILEGICGTVHDEKKPDVLLYDTIFQIFNNRNCLSLKDKPKVIIVQACRGANRGELWVRDSPASLEVASSQSSENLEEDAVYKTHVEKDFIAFCSSTPHNVSWRDSTMGSIFITQLITCFQKYSWCCHLEEVFRKVQQSFETPRAKAQMPTIERLSMTRYFYLFPGN"}, "B6": {"name": "BID (protein, UniProt P55957 1-195)", "chain": "MDCEVNNGSSLRDECITNLLVFGFLQSCSDNSFRRELDALGHELPVLAPQWEGYDELQTDGNRSSHSRLGRIEADSESQEDIIRNIARHLAQVGDSMDRSIPPGLVNGLALQLRNTSRSEEDRNRDLATALEQLLQAYPRDMEKEKTMLVLALLLAKKVASHTPSLLRDVFHTTVNFINQNLRTYVRSLARNGMD"}, "B7": {"name": "TST (protein, UniProt Q16762 1-297)", "chain": "MVHQVLYRALVSTKWLAESIRTGKLGPGLRVLDASWYSPGTREARKEYLERHVPGASFFDIEECRDTASPYEMMLPSEAGFAEYVGRLGISNHTHVVVYDGEHLGSFYAPRVWWMFRVFGHRTVSVLNGGFRNWLKEGHPVTSEPSRPEPAVFKATLDRSLLKTYEQVLENLESKRFQLVDSRSQGRFLGTEPEPDAVGLDSGHIRGAVNMPFMDFLTEDGFEKGPEELRALFQTKKVDLSQPLIATCRKGVTACHVALAAYLCGKPDVAVYDGSWSEWFRRAPPESRVSQGKSEKA"}, "B8": {"name": "PRDX5 (protein, UniProt P30044 53-214)", "chain": "MAPIKVGDAIPAVEVFEGEPGNKVNLAELFKGKKGVLFGVPGAFTPGCSKTHLPGFVEQAEALKAKGVQVVACLSVNDAFVTGEWGRAHKAEGKVRLLADPTGAFGKETDLLLDDSLVSIFGNRRLKRFSMVVQDGIVKALNVEPDGTGLTCSLAPNIISQL"}, "B9": {"name": "CSRP1 (protein, UniProt P21291 1-193)", "chain": "MPNWGGGKKCGVCQKTVYFAEEVQCEGNSFHKSCFLCMVCKKNLDSTTVAVHGEEIYCKSCYGKKYGPKGYGYGQGAGTLSTDKGESLGIKHEEAPGHRPTTNPNASKFAQKIGGSERCPRCSQAVYAAEKVIGAGKSWHKACFRCAKCGKGLESTTLADKDGEIYCKGCYAKNFGPKGFGFGQGAGALVHSE"}, "B10": {"name": "PRSS3 (protein, UniProt P35030 81-304)", "chain": "IVGGYTCEENSLPYQVSLNSGSHFCGGSLISEQWVVSAAHCYKTRIQVRLGEHNIKVLEGNEQFINAAKIIRHPKYNRDTLDNDIMLIKLSSPAVINARVSTISLPTTPPAAGTECLISGWGNTLSFGADYPDELKCLDAPVLTQAECKASYPGKITNSMFCVGFLEGGKDSCQRDSGGPVVCNGQLQGVVSWGHGCAWKNRPGVYTKVYNYVDWIKDTIAANS"}, "B11": {"name": "EDF1 (protein, UniProt O60869 1-148)", "chain": "MAESDWDTVTVLRKKGPTAAQAKSKQAILAAQRRGEDVETSKKWAAGQNKQHSITKNTAKLDRETEELHHDRVTLEVGKVIQQGRQSKGLTQKDLATKINEKPQVIADYESGRAIPNNQVLGKIERAIGLKLRGKDIGKPIEKGPRAK"}, "B12": {"name": "NME3 (protein, UniProt Q13232 1-169)", "chain": "MICLVLTIFANLFPAACTGAHERTFLAVKPDGVQRRLVGEIVRRFERKGFKLVALKLVQASEELLREHYAELRERPFYGRLVKYMASGPVVAMVWQGLDVVRTSRALIGATNPADAPPGTIRGDFCIEVGKNLIHGSDSVESARREIALWFRADELLCWEDSAGHWLYE"}}, "note": "Results are given in words; binding and its absence hold for the method and conditions named. Binding seen in cells or lysates may run through a third protein. Here binding means that the protein was enriched with, or labelled near, the bait; the list need not be complete."}
{"target": "BioID-BAG3 (UniProt O95817)", "assay": "proximity labelling; BioID in human AC16 cardiomyocyte cells: transfected with plasmid expressing BioID-BAG3 for 48 h, biotin for 16 h; LC-MS/MS; BAG3_Biotin vs. BioID vector only, adjusted p < 0.05; effect sizes corrected for biotin alone and for BAG3 over-expression; three replicates"}
{"binder": "B1", "binding": "binds"}
{"binder": "B2", "binding": "binds"}
{"binder": "B3", "binding": "binds"}
{"binder": "B4", "binding": "binds"}
{"binder": "B5", "binding": "binds"}
{"binder": "B6", "binding": "binds"}
{"binder": "B7", "binding": "binds"}
{"binder": "B8", "binding": "binds"}
{"binder": "B9", "binding": "binds"}
{"binder": "B10", "binding": "binds"}
{"binder": "B11", "binding": "binds"}
{"binder": "B12", "binding": "binds"}
